Data reported in publication PMC5180085.

Sequences of proteins named here, by UniProt entry; tags and fusion partners are left off. Residues count along the entry.
UniProt P02769, 25-607: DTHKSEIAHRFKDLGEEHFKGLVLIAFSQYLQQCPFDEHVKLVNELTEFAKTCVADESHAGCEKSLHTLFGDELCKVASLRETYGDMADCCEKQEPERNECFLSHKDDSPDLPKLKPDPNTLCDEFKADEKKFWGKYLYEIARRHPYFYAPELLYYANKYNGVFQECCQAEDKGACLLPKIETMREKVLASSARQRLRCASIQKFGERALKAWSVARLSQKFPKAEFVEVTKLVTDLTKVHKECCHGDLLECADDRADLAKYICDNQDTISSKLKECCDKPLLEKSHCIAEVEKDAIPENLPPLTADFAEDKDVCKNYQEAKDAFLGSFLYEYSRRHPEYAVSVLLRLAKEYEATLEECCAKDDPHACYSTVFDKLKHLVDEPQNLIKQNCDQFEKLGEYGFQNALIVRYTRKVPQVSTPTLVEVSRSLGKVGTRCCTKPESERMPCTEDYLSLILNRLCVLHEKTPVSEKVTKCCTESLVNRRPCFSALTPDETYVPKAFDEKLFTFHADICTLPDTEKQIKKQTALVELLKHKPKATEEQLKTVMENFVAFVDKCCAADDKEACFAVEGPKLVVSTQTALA

Columns and labels:
BSA = BSA (UniProt P02769); experiment: mwPIFE; conditions: 5 mM Ca2+, room temp, 30 min: BamHI 10 mM Tris-HCl pH 8, 100 mM KCl, 0.02% Triton X-100, 0.1 mg/ml BSA, 5 mM EDTA/MgCl2/CaCl2, Ku 35 mM Tris-Cl pH 7.9, 5.5% glycerol, commercial protein, label: 5' biotin strand 1, 5' Cy3 strand 2
[1] = system: XPF (truncated) + ERCC1 (truncated); experiment: competition with a labelled probe; conditions: mwPIFE, 1-100x excess, room temp, 30 min: BamHI 10 mM Tris-HCl pH 8, 100 mM KCl, 0.02% Triton X-100, 0.1 mg/ml BSA, recombinant protein
[2] = system: XPF (truncated) + ERCC1 (truncated); experiment: fluorescence anisotropy; conditions: FA: 10 mM Tris-HCl pH 8, 10 mM NaCl, 10% glycerol, 1 mM TCEP, 50 nM DNA, 25 C, recombinant protein
[3] = target: T1, BamHI restriction endonuclease (UniProt P23940); experiment: competition with a labelled probe; conditions: Ca2+, mwPIFE, 1-10x excess, room temp, 30 min: BamHI 10 mM Tris-HCl pH 8, 100 mM KCl, 0.02% Triton X-100, 0.1 mg/ml BSA, 5 mM EDTA/MgCl2/CaCl2, Ku 35 mM Tris-Cl pH 7.9, 5.5% glycerol, commercial protein
T1 sequence (looked up, limits assumed): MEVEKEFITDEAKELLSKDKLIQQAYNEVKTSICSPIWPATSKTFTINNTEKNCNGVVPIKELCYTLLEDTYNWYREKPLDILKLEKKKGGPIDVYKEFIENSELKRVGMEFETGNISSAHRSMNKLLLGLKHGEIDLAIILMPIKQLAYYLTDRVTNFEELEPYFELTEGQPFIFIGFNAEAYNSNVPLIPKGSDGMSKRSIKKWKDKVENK

Ku70 + Ku80 = experiment: mwPIFE; conditions: both ends blocked by neutravidin, negligible PIFE, internal Cy3 after nt 15 of strand 1, room temp, 30 min: BamHI 10 mM Tris-HCl pH 8, 100 mM KCl, 0.02% Triton X-100, 0.1 mg/ml BSA, 5 mM EDTA/MgCl2/CaCl2, Ku 35 mM Tris-Cl pH 7.9, 5.5% glycerol, recombinant protein, label: 5' and 3' biotin-TEG on both strands, iCy3
[4] = target: T1, BamHI restriction endonuclease; experiment: mwPIFE; conditions: no divalent cation (5 mM EDTA), room temp, 30 min: BamHI 10 mM Tris-HCl pH 8, 100 mM KCl, 0.02% Triton X-100, 0.1 mg/ml BSA, 5 mM EDTA/MgCl2/CaCl2, Ku 35 mM Tris-Cl pH 7.9, 5.5% glycerol, commercial protein, label: 5' biotin strand 1, 5' Cy3 strand 2

CACAACGACCACCTAGATAGAGCCAAGCAGTTTACGTACCGTCATTCCCTTCCACGTCATCGAGCTACGGATCCA (double strand) [1_f/1_r (BamHI site 1 bp from Cy3)]
binding result (BSA): no binding

CAGCGCTCGG [10ss]
binding result ([1]; no inhibition, 5 mM …, Ku 35 mM Tris-Cl pH 7.9, 5.5% glycerol, single-stranded DNA): no binding
Kd ([2]; single-stranded DNA): 8.65 µM

CACAACGACGGATCCCACCTAGAT (double strand) [B competitor]
binding result [3]: binds

TTGCATCCTTCACAACGACCACCTAGATAG (double strand) [BtnT_15_Cy3_15_BtnT (both ends blocked)]
binding result (Ku70 + Ku80): no binding

CAGCGCTCGGTTTTTTTTTT / CCGAGCGCT [Y/10 (3' overhang)]
binding result ([1]; intermediate, 5 mM EDTA/MgCl2/CaCl2, Ku 35 mM Tris-Cl pH 7.9, 5.5% glycerol): binds more weakly
Kd [2]: 1.32 µM

CACAACGACCACCTAGATGGATCCA (double strand) [Btn_25BamHI1_f/Cy3_25BamHI1_r]
binding result [4]: binds more weakly

For some assays here: A negative result means that nothing was seen under these conditions. For some assays here: At least one verdict was read from the data and is not stated in words by the source. For some assays here: Construct, isoform or probe ends are uncertain for at least one entry. For some assays here: Weaker means in comparison with the reference protein, sequence or condition of that experiment. For some assays here: Tags and fusion partners may be left off the protein sequences shown.
